Measured values as given in PubChem BioAssay AID540256 (National Center for Advancing Translational Sciences (NCATS), 2011).
Screen size: about 300,000 compounds; about 3,700 (1.2%) were called active. Inconclusive means that the source gave no clear call. Such entries were picked first, then a sample of the others. Calls follow the shape of the full dose curve; tested in HEK293 cells. Potencies of inconclusive entries are doubtful fits and often do not repeat.

Assay: qHTS for Inhibitors of binding or entry into cells for Lassa Virus; also: nearly all actives have a fitted effect of over 50% in size
Settings: Lassa virus pseudotype entry inhibition, cell reporter; series mostly up to 37.9 µM
Potency is read from the fitted curve at half-maximal effect.

Which Potency does the source give for `COc1ccc(/C=C(\C#N)C(=O)OCC(=O)NCc2ccc(Cl)cc2)cc1` here?
The Potency was “inactive”.

With `Nc1cc(-c2nc3ncccc3o2)ccc1Cl` as the compound, how does the Potency read?
The Potency was “inactive”.

For `COc1cc(/C=N/N=C(\N)c2nonc2N)ccc1O`, which Potency is on record?
Its Potency is inconclusive: 14.1 µM [inhibitor, single point].

For `CCCn1cc(S(=O)(=O)c2ccccc2)c(=O)c2cc(F)c(N3CCCC3)cc21`, which Potency is on record?
The Potency was inconclusive: 11.2 µM [inhibitor, partial curve, poor fit].

With `COc1ccc(S(N)(=O)=O)cc1C(=O)NCCCN1CCN(c2cccc(Cl)c2)CC1` as the compound, how does the Potency read?
Its Potency is inconclusive: 3.55 µM [activator, single point].

Which Potency does the source give for `CCC(C)NC(=O)c1[nH]c2cc(OC)ccc2c1Sc1ccc(C)cc1` (stereo unspecified) here?
The Potency was “inactive”.

For `Cc1cccc(-c2ncc(S(=O)(=O)C(C)(C)C)c(N)n2)c1`, which Potency is on record?
Its Potency is inconclusive: 35.5 µM [inhibitor, single point].

For `Cc1ccc(CSCC(=O)N(C)CC(=O)Nc2ccccc2C(F)(F)F)cc1`, which Potency is on record?
Its Potency is inconclusive: 0.447 µM [activator, single point].

With `COc1ccc(-c2cc(C(F)(F)F)n3nc(C(=O)Nc4sc5c(c4C#N)CCC(C)C5)cc3n2)cc1OC` (stereo unspecified) as the compound, how does the Potency read?
The Potency was “inactive”.

Which Potency does the source give for `COc1ccc(-c2nn3c(COc4ccccc4)nnc3s2)cc1OC` here?
The Potency was inconclusive: 18.3 µM [inhibitor, single point].

With `O=C(Nc1cccc(C(F)(F)F)c1)N(Cc1ccc(Cl)cc1)CC(O)C(F)(F)F` (stereo unspecified) as the compound, how does the Potency read?
Its Potency is inconclusive: 22.4 µM [inhibitor, single point].

Which Potency does the source give for `CC(NC1=CC(=O)c2cccnc2C1=O)C(O)c1ccccc1` (stereo unspecified) here?
Its Potency is inconclusive: 12.6 µM [inhibitor, partial curve, poor fit].

Which Potency does the source give for `CC(OC(=O)c1ccc(Cl)nc1)C(=O)NC1(C#N)CCCCC1` (stereo unspecified) here?
The Potency was “inactive”.

Which Potency does the source give for `O=C(CNC(=O)c1ccc(-c2ccccc2)cc1)OCc1c(F)cccc1Cl` here?
The Potency was “inactive”.

Which Potency does the source give for `CC1CN(C(=O)Nc2ccc(C(=O)NCCc3ccccc3Cl)cc2)c2ccccc2S1` (stereo unspecified) here?
The Potency was inconclusive: 11.2 µM [inhibitor, single point].

Which Potency does the source give for `CCNC(=O)C(=O)NCc1ccncc1` here?
Its Potency is inconclusive: 17.8 µM [activator, partial curve, poor fit].

Which Potency does the source give for `C=CCOc1ccc(C2C3=C(CCCC3=O)N(CC(=O)O)C3=C2C(=O)CCC3)cc1OCC` here?
Its Potency is inconclusive: 31.6 µM [activator, single point].

Which Potency does the source give for `O=C(/C=C/c1ccc(-c2ccccc2[N+](=O)[O-])o1)c1ccc(Br)cc1` here?
Its Potency is “inactive”.

Which Potency does the source give for `CCOC(=O)c1c(C)[nH]c(N=Nc2ccc(C)cc2C)c1C` here?
Its Potency is “inactive”.

For `COc1cc2c(C(=O)N3CCN(c4ccccc4)CC3)c(C)oc2cc1Br`, which Potency is on record?
The Potency was inconclusive: 15.8 µM [inhibitor, single point].

Which Potency does the source give for `O=C(Nc1ccc(Cl)cc1)C1CCN(S(=O)(=O)c2ccc(Br)s2)CC1` here?
Its Potency is inconclusive: 15.8 µM [inhibitor, single point].

Which Potency does the source give for `Cc1ccc(-c2nnc(SCC(=O)N/N=C/c3c(C)nn(-c4ccccc4)c3C)n2-c2ccc(C)cc2)cc1` here?
The Potency was active: 7.08 µM.

With `Cc1ccccc1C(=O)Nc1ccc(C(=O)OCc2cc(=O)n3nc(C4CC4)sc3n2)cc1` as the compound, how does the Potency read?
Its Potency is inconclusive: 1.41 µM [inhibitor, full curve, poor fit].

With `COc1nccnc1NS(=O)(=O)c1ccc(NC(=S)NC(=O)c2ccccc2F)cc1` as the compound, how does the Potency read?
The Potency was inconclusive: 0.355 µM [inhibitor, partial curve, poor fit].

Which Potency does the source give for `Cc1ccc(-n2ncc(C(=O)NCCCN3CCc4ccccc4C3)c2C2CCN(C(=O)OC(C)(C)C)CC2)cc1C` here?
The Potency was inconclusive: 35.5 µM [inhibitor, single point].

For `CC(CNC(=O)CN1C(=O)COc2ccc(S(=O)(=O)N3CCCCC3)cc21)c1ccccc1` (stereo unspecified), which Potency is on record?
The Potency was inconclusive: 12.6 µM [inhibitor, partial curve, poor fit].

Which Potency does the source give for `Cc1nc2c(-c3ccccc3)c(C)[nH]n2c(=O)c1Cc1ccc(C(C)C)cc1` here?
Its Potency is inconclusive: 2.51 µM [inhibitor, full curve, poor fit].

Which Potency does the source give for `Cc1noc(C)c1CSc1nc2ccccc2c(=O)n1-c1ccc(Cl)cc1` here?
Its Potency is inconclusive: 4.61 µM [inhibitor, partial curve, poor fit].

Which Potency does the source give for `O=C(c1ccc(F)cc1)N1CCN(c2cc(N3CCCCC3)c(F)cc2[N+](=O)[O-])CC1` here?
The Potency was inconclusive: 6.51 µM [inhibitor, partial curve, poor fit].

Which Potency does the source give for `CCOc1ccc(CCNC(=O)C2CCN(c3nnc(-n4cccc4)s3)CC2)cc1OCC` here?
The Potency was inconclusive: 0.316 µM [inhibitor, full curve, poor fit].

Which Potency does the source give for `Cc1ccc(CNC(=O)c2cc(S(=O)(=O)N3CCCCC3)cn2C)cc1` here?
The Potency was inconclusive: 10 µM [inhibitor, partial curve, poor fit].

Which Potency does the source give for `O=C(CN(Cc1ccco1)C(=O)c1ccccc1)Nc1ccc(Cl)c(Cl)c1` here?
Its Potency is inconclusive: 16.4 µM [inhibitor, single point].

Which Potency does the source give for `CCOC(=O)c1cc(-c2ccc(/C=C3/C(=O)N(c4ccc(C(=O)O)cc4)N=C3C)o2)ccc1Cl` here?
The Potency was “inactive”.

For `COc1ccccc1C(NC(C)=O)c1cc(Cl)c2cccnc2c1O` (stereo unspecified), which Potency is on record?
Its Potency is inconclusive: 15.8 µM [inhibitor, partial curve, poor fit].

For `CCOC(=O)c1c(C)[nH]c(C=O)c1Cc1cccc(Cl)c1`, which Potency is on record?
The Potency was active: 6.31 µM.

For `CCC1CN(C(=O)N2CCC(C(=O)N(C)Cc3ccccc3)CC2)c2ccccc2O1` (stereo unspecified), which Potency is on record?
The Potency was inconclusive: 35.5 µM [inhibitor, single point].

With `CC1COCC(C)N1C1=C(Cl)C(=O)c2ccccc2C1=O` (stereo unspecified) as the compound, how does the Potency read?
Its Potency is inconclusive: 25.1 µM [inhibitor, single point].

With `Cc1ccc(NC(=O)c2ccc(CNS(=O)(=O)c3cccc(C(F)(F)F)c3)cc2)cc1` as the compound, how does the Potency read?
The Potency was “inactive”.

With `O=c1c(-c2ccccc2)c(O)nc(SCCN2CCOCC2)n1-c1ccccc1` as the compound, how does the Potency read?
The Potency was “inactive”.

With `CCC1CN(C(=O)Nc2ccccc2C(F)(F)F)c2ccccc2S1` (stereo unspecified) as the compound, how does the Potency read?
The Potency was “inactive”.

Which Potency does the source give for `Cc1cccc(-n2c(SCC(=O)N3CCCC3)nc3n[nH]c(C)c3c2=N)c1` here?
Its Potency is inconclusive: 0.13 µM [inhibitor, full curve, poor fit].
